Data from US20150203517A1, “Prodrugs of Compounds that Enhance Antifungal Activity and Compositions of Said Prodrugs” (priority 2014, published 2015).
Structures can show the parent of a compound that is named as a salt. The name of at least one read-out is uncertain.

Test: Stability in saline (HPLC recovery after 6 and 24 hours)
Format: physicochemical
Details: HPLC UV 220 nm

| Compound | Recovery after 6 hr in saline with 220 nm | Recovery after 24 hr in saline with 220 nm |
| --- | --- | --- |
| NCCCC[C@H](N)C(=O)NCCC(=O)ONC(=O)Cc1ccc(CCCCc2ccccc2)cc1 [Compound 14, (S)-2,6-Diamino-N-(3-oxo-3-(2-(4-(4-phenylbutyl)phenyl)acetamidooxy)propyl)hexanamide di-hydrochloride] | 93.2% | 75.7% |
| COCCOCCOCCOCCOCCOCC(=O)N1CCC(CCCC(=O)ONC(=O)Cc2ccc(CCCCc3ccccc3)cc2)CC1 [Compound 122] | 96.8% | 93.9% |
| NCC1(C(=O)ONC(=O)Cc2ccc(CCCCc3ccccc3)cc2)CC1 [Compound 54, N-(1-(aminomethyl)cyclopropanecarbonyloxy)-2-(4-(4-phenylbutyl)phenyl)acetamide] | 86.4% | 70.8% |
